According to PMC9436816:
No constants are given. Whether binding was seen depends on the method and setting. In cells and extracts the contact can be indirect. Binding can be weak; no strength is given. Tags and fused reporters may be left off the sequences shown.

Target: T1, Flag-tagged OGT^WT (ncOGT) (UniProt O15294)
T1 sequence: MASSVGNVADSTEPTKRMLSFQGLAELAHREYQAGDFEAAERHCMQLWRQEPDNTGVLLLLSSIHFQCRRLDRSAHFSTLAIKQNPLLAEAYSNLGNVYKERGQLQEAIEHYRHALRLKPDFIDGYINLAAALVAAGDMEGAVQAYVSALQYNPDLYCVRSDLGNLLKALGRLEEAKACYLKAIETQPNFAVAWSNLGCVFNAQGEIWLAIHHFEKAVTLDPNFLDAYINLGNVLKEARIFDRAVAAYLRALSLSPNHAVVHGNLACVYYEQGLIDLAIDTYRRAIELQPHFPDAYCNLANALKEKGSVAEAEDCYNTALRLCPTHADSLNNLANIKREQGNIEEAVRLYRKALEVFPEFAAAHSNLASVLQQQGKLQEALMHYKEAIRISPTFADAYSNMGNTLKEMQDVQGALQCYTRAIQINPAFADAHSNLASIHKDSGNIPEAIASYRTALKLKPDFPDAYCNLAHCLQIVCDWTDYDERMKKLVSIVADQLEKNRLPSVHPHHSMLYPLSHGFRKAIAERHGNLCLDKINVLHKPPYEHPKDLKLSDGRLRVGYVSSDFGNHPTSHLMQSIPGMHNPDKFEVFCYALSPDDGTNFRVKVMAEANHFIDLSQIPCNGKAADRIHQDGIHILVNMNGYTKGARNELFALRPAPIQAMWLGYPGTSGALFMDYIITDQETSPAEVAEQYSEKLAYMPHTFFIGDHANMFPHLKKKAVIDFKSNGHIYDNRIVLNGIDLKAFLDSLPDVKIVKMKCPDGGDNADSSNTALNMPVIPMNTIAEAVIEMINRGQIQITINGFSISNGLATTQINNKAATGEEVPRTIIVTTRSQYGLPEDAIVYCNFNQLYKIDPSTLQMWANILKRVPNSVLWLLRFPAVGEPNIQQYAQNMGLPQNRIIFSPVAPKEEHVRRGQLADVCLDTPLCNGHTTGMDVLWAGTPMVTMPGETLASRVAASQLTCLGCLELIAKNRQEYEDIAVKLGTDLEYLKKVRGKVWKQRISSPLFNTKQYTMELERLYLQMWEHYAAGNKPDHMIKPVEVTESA
Assay: co-IP; A549 cells transfected with Flag-tagged OGT (WT or mutants), with or without EGF (100 ng/ml, 1 h); OGT-associated proteins immunoprecipitated, WB for endogenous partners

Substance | binding
PI3K subunit p85, endogenous (human (endogenous in A549)) | binds
STAT5, endogenous (human (endogenous in A549)) | binds
